From paper PMC3675069 come the findings set out here.

For the experiment, the target named is R181C V2R/Rluc8 (human) (UniProt P30518). Nature of the experiment: FRET or BRET; live HEK293FT cells co-expressing V2R/Rluc8 and ubiquitin K48,63A/Venus; AVP at several doses for 120 min; ligand-induced BRET, 37°C. In general terms: In BRET a luciferase serves as donor, and the signal depends on an acceptor being close.

These are yes or no findings as the source states them, for the method shown. Binding seen in cells or lysates may run through a third protein. Some entries that bind do so weakly or less than the wild type.

For the substance “Ubiquitin K48,63A fused to Venus (ubiquitin/Venus) (from UniProt P0CG47 1-76)”, the binding entry was “binds”.
